Reference: paper PMC5740878
These are yes or no findings as the source states them, for the method shown. Binding can be weak; no strength is given. Where a sequence is shown, tags or fusion partners need not be part of it.

The chains behind the UniProt entries cited, without tags or fusion partners. Where a name states a change or a piece, a line headed by the entry shows the natural chain unless it says otherwise.
UniProt Q92993: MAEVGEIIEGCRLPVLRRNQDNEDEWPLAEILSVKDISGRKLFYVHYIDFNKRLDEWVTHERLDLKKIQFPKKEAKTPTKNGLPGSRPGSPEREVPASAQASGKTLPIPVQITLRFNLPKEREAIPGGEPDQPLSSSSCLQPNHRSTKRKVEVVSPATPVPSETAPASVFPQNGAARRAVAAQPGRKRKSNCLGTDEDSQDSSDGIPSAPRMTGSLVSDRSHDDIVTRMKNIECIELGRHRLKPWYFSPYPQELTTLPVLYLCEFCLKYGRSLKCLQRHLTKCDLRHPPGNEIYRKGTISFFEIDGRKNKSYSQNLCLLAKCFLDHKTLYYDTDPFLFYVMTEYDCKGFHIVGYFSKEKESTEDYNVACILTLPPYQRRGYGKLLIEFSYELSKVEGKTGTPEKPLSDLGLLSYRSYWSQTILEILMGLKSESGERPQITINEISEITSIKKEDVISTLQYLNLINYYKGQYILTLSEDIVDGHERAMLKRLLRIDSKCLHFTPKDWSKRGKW

Key:
Assay in all cases: pull-down; His-tagged TIP60 WT or mutants immobilised on Ni-NTA agarose beads; equal quantity of GST-UHRF1 added in PBS with 30 mM imidazole and 0.1% triton; 150 mM NaCl; five washes; SDS-PAGE and Western blot; both purified
[1] = molecular target: His-tagged TIP60 ∆ZnFr (zinc finger deletion) (UniProt Q92993)
[2] = molecular target: His-tagged TIP60 ∆CRD (chromodomain deletion) (UniProt Q92993)
[3] = molecular target: His-tagged TIP60 ∆HAT (histone acetyltransferase domain deletion) (UniProt Q92993)

Measured: binding

B1: GST-UHRF1 (protein, UniProt Q96T88 1-793)
chain: MWIQVRTMDGRQTHTVDSLSRLTKVEELRRKIQELFHVEPGLQRLFYRGKQMEDGHTLFDYEVRLNDTIQLLVRQSLVLPHSTKERDSELSDTDSGCCLGQSESDKSSTHGEAAAETDSRPADEDMWDETELGLYKVNEYVDARDTNMGAWFEAQVVRVTRKAPSRDEPCSSTSRPALEEDVIYHVKYDDYPENGVVQMNSRDVRARARTIIKWQDLEVGQVVMLNYNPDNPKERGFWYDAEISRKRETRTARELYANVVLGDDSLNDCRIIFVDEVFKIERPGEGSPMVDNPMRRKSGPSCKHCKDDVNRLCRVCACHLCGGRQDPDKQLMCDECDMAFHIYCLDPPLSSVPSEDEWYCPECRNDASEVVLAGERLRESKKKAKMASATSSSQRDWGKGMACVGRTKECTIVPSNHYGPIPGIPVGTMWRFRVQVSESGVHRPHVAGIHGRSNDGAYSLVLAGGYEDDVDHGNFFTYTGSGGRDLSGNKRTAEQSCDQKLTNTNRALALNCFAPINDQEGAEAKDWRSGKPVRVVRNVKGGKNSKYAPAEGNRYDGIYKVVKYWPEKGKSGFLVWRYLLRRDDDEPGPWTKEGKDRIKKLGLTMQYPEGYLEALANREREKENSKREEEEQQEGGFASPRTGKGKWKRKSAGGGPSRAGSPRRTSKKTKVEPYSLTAQQSSLIREDKSNAKLWNEVLASLKDRPASGSPFQLFLSKVEETFQCICCQELVFRPITTVCQHNVCKDCLDRSFRAQVFSCPACRYDLGRSYAMQVNQPLQTVLNQLFPGYGNGR
binds: [1] | [2] | [3]
